{"source": "PubChem BioAssay AID493014", "about": "(National Center for Advancing Translational Sciences (NCATS), 2011)", "note": "Hit rate of the full screen: of about 340,000 compounds, about 170 (0.05%) were called active. The inconclusive results got no clear call from the source; some entries with a clear call stand among them for comparison. Calls come from the whole dose curve; as a rule, active = well fitted inhibition curve with a large enough effect in the signal ratio, with a control signal flat (not every such curve was filed as active); inconclusive = small, poorly fitted or top-dose-only effect, or effect the other way, or a change in a side signal; inactive = flat fitted curve, though single readings scatter; the % refers to the signal ratio. Potencies beside an inconclusive call are fits to weak or partial responses and may not hold up.", "data": [{"test": "qHTS Assay to Find Inhibitors of Chronic Active B-Cell Receptor Signaling; note: potency is the fitted concentration of half-maximal effect;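 for activity change, negative = inhibition: plate controls were basal doxycycline-induced cells for no effect and cells given 10 µM MG132 for full effect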", "details": "ABC-DLBCL IkBa-CBG/CBR reporter, luminescence ratio (green luciferase fused to IkBa over red control in TMD8 lymphoma cells), 4 h; activity change, negative = inhibition: at 46.1 µM (top of the series)", "summary_of_the_method": "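TMD8 human ABC-DLBCL cells with doxycycline-inducible IκBα–green luciferase fusion and unfused red luciferase, in 0.5% FBS medium; compounds up to 46 uM, 4 h at 37C. Green/red luminescence ratio, filter-overlap corrected, fitted to concentration-response curves.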", "values": [{"compound": "Cc1ccc(N2CC(NC(=O)c3ccc(S(=O)(=O)N4CCOCC4)cc3)CC2=O)cc1C", "note": "(configuration not stated)", "activity change, negative = inhibition": "inactive: 6.41%"}, {"compound": "COc1ccc(/C=N\\NC(=O)c2ccc(F)cc2)cc1COc1cc(F)ccc1[N+](=O)[O-]", "activity change, negative = inhibition": "inconclusive: -10.2%"}, {"compound": "CN(C)c1nc(C(F)(F)F)cc(=O)[nH]1", "activity change, negative = inhibition": "inconclusive: 6.5%"}, {"compound": "COc1ccc(CCC(=O)Nc2ccc(S(=O)(=O)N3CCCC3)cc2)cc1OC", "activity change, negative = inhibition": "inactive: -1.92%"}, {"compound": "CO/N=C/C(=N\\Nc1ccccc1)C(=O)c1ccccc1", "activity change, negative = inhibition": "inconclusive: 3.79%"}, {"compound": "O=C(NNC(=S)NC(=O)c1ccc(Br)cc1)c1cccc([N+](=O)[O-])c1", "activity change, negative = inhibition": "inactive: -6.04%"}, {"compound": "O=C/C=C/c1c(-c2ccccc2)cc2oc3ccccc3cc1-2", "Potency": "inconclusive: 17.8 µM [falling, single point]"}, {"compound": "COc1ccc2nc(/N=C(\\N)NC(=O)C(C)(C)C)nc(C)c2c1", "activity change, negative = inhibition": "inconclusive: 1.66%"}, {"compound": "CCOc1ccc(C(=O)NCCc2sc3nc(-c4ccc(Cl)cc4)nn3c2C)cc1OCC", "Potency": "inconclusive: 25.1 µM [falling, single point]"}, {"compound": "COCCCn1c(=S)[nH]c2sc3c(c2c1=O)CCCS3", "activity change, negative = inhibition": "inactive: -0.63%"}, {"compound": "COc1ccc(/C=N/NC(=O)c2cccnc2)cc1COc1ccc([N+](=O)[O-])c(C)c1", "Potency": "inconclusive: 25.1 µM [falling, single point]"}, {"compound": "OCCNc1nc2ccccc2n1-c1ccccc1", "activity change, negative = inhibition": "inconclusive: 12.4%"}, {"compound": "Cc1ccc2c(Cl)c(C(=O)NC3CC3)sc2c1", "activity change, negative = inhibition": "inconclusive: 6.9%"}, {"compound": "CCCc1cc(=O)[nH]c(=S)[nH]1", "Potency": "inconclusive: 23.1 µM [rising, partial curve, poor fit]"}, {"compound": "O=C(CCNC(=O)c1ccc(Cl)cc1)Nc1ncccc1O", "Potency": "inconclusive: 3.16 µM [falling, partial curve, poor fit]"}, {"compound": "Cc1ccc(NC(=O)COc2ccc(/C=N/NC(=O)CSCc3ccccc3)cc2)cc1", "Potency": "inconclusive: 5.17 µM [rising, full curve, poor fit]"}, {"compound": "CC(C)C(=O)Nc1c(-c2ccccc2F)c(=O)c2ccccc2n1C", "activity change, negative = inhibition": "inconclusive: -2.23%"}, {"compound": "O=C(NC1CCCCC1)C(c1ccccc1)N(C(=O)c1cccs1)c1ccc2c(c1)OCO2", "note": "(configuration not stated)", "activity change, negative = inhibition": "inactive: -2.13%"}, {"compound": "CCc1cc2c(=O)c(-c3ccc4c(c3)OCO4)coc2c(CN(C)C)c1O", "activity change, negative = inhibition": "inactive: -0.82%"}, {"compound": "CC(C)COC(=O)/C(C#N)=C/c1c[nH]c2ccccc12", "activity change, negative = inhibition": "inconclusive: 6.3%"}, {"compound": "O=C(COC(=O)c1ccc(F)cc1F)NC(=O)Nc1ccc2c(c1)OCCO2", "activity change, negative = inhibition": "inconclusive: -2.93%"}, {"compound": "C(=N\\Nc1nn2cnnc2c2ccccc12)/c1ccco1", "activity change, negative = inhibition": "inactive: 0.172%"}, {"compound": "N#C/C(=C(/O)c1ccc(Cl)c([N+](=O)[O-])c1)c1nc2ccccc2[nH]1", "Potency": "inconclusive: 2.24 µM [falling, full curve]"}, {"compound": "Oc1[nH]c2ccccc2c1N=Nc1c(F)c(F)c(Cl)c(F)c1F", "activity change, negative = inhibition": "inconclusive: -11.5%"}, {"compound": "C=CCn1c(SCC(=O)c2ccc(CNC(C)=O)o2)nc2scc(C3CC3)c2c1=O", "activity change, negative = inhibition": "inconclusive: 7.57%"}, {"compound": "Oc1ccccc1NCC(O)Cn1ccc2ccccc21", "note": "(configuration not stated)", "Potency": "inconclusive: 5.01 µM [falling, full curve]"}, {"compound": "COc1cccc(C2c3[nH]c4ccccc4c3C[C@H]3C(=O)N(C4CC4)CC(=O)N23)c1", "note": "(some centres not stated)", "Potency": "inconclusive: 35.5 µM [rising, single point]"}, {"compound": "COc1ccccc1NC(=O)c1cccc(N2C(=O)C3C4C=CC(C4)C3C2=O)c1", "note": "(configuration not stated)", "Potency": "inconclusive: 10 µM [falling, partial curve]"}, {"compound": "COc1ccc(C(=O)Nc2sc(C)c(C)c2CN2CC(C)OC(C)C2)cc1", "note": "(configuration not stated)", "Potency": "inconclusive: 7.31 µM [falling, partial curve, poor fit]"}, {"compound": "C=C1c2ccccc2NC(=S)N1Cc1ccc2c(c1)OCO2", "activity change, negative = inhibition": "inactive: -0.127%"}, {"compound": "COc1ccc(NC(=O)c2ccc(Oc3ncccn3)cc2)cc1", "activity change, negative = inhibition": "inactive: -5.34%"}, {"compound": "CC(O)CSc1nc2c(c(=O)n(C)c(=O)n2C)n1CCCc1ccccc1", "note": "(configuration not stated)", "activity change, negative = inhibition": "inactive: 1.2%"}, {"compound": "Cc1nn(C(C)(C)C)c(OC(=O)c2cccs2)c1S(=O)(=O)c1ccccc1", "activity change, negative = inhibition": "inconclusive: -29.1%"}, {"compound": "COc1ccccc1NS(=O)(=O)c1cc(NC(=O)c2sccc2C)ccc1N1CCCC1", "activity change, negative = inhibition": "inactive: 2.48%"}, {"compound": "CCC/C(C)=N\\Nc1nc2c(c(=O)n(C)c(=O)n2C)n1C", "activity change, negative = inhibition": "inconclusive: 8.17%"}, {"compound": "COC(=O)Cc1[nH]nc2c1C(c1cccc(OC)c1OC)C(C#N)=C(N)O2", "note": "(configuration not stated)", "activity change, negative = inhibition": "inconclusive: -0.0275%"}, {"compound": "CC(C)(C)c1ccccc1NC(=O)c1ccc2c(c1)SC1=NS(=O)(=O)CCN12", "activity change, negative = inhibition": "inconclusive: 11.3%"}, {"compound": "COC(=O)c1c(C)noc1-c1cc(C)on1", "activity change, negative = inhibition": "inconclusive: 4.38%"}, {"compound": "COC(=O)c1c(NC(=O)CSc2ccccc2N)sc(C)c1C", "activity change, negative = inhibition": "inconclusive: -5.04%"}, {"compound": "CCCCn1c(=N)n(CC(=O)c2ccc(OC)cc2)c2ccccc21", "activity change, negative = inhibition": "inconclusive: -9.48%"}, {"compound": "O=S(=O)(c1ccccc1)c1nc(Nc2cccc(O)c2)sc1Cl", "activity change, negative = inhibition": "inconclusive: -5.88%"}, {"compound": "CCN1C/C(=C\\c2cccc([N+](=O)[O-])c2)C(=O)/C(=C/c2cccc([N+](=O)[O-])c2)C1", "Potency": "inconclusive: 25.9 µM [falling, partial curve, poor fit]"}, {"compound": "O=C(Nc1ccc(N2CCN(C(=O)c3cccs3)CC2)cc1)c1ccc([N+](=O)[O-])o1", "Potency": "inconclusive: 6.31 µM [falling, full curve, poor fit]"}, {"compound": "CCC(C(=O)NCC1CCCO1)n1nc(C)c2sc3ccccc3c2c1=O", "note": "(configuration not stated)", "activity change, negative = inhibition": "inconclusive: 1.93%"}, {"compound": "CCOC(=O)c1nc(C)sc1-c1ccnn1S(=O)(=O)c1cccc(Cl)c1", "activity change, negative = inhibition": "inconclusive: -11.8%"}, {"compound": "Cc1cccc(OCCSc2nc3ncnc(N)c3[nH]2)c1", "Potency": "inconclusive: 15.8 µM [falling, single point]"}, {"compound": "CCOC(=O)[C@@H]1[C@H]2COc3ccccc3[C@H]2N2C(=O)N(c3ccc(Cl)cc3)C(=O)[C@]12C", "activity change, negative = inhibition": "inconclusive: -18.1%"}, {"compound": "CNC(=O)COC(=O)c1ccc(NC(=O)CC#N)cc1", "Potency": "inconclusive: 9.2 µM [falling, partial curve]"}, {"compound": "C/C(=N\\NC(=O)C1COc2ccccc2O1)c1ccccn1", "note": "(configuration not stated)", "activity change, negative = inhibition": "inconclusive: 0.258%"}, {"compound": "COc1ccc([N+](=O)[O-])cc1N/C(=N/S(=O)(=O)c1ccccc1)c1ccccc1", "Potency": "inconclusive: 22.4 µM [falling, single point]"}, {"compound": "O=C(Nc1ccc2c(c1)OCCO2)C(=O)c1c[nH]c2ccccc12", "Potency": "inconclusive: 2.82 µM [falling, partial curve, poor fit]"}, {"compound": "Cc1ccc2nc(SCC(=O)Nc3ccc(C(N)=O)cc3)[nH]c2c1", "Potency": "inconclusive: 25.1 µM [falling, partial curve, poor fit]"}, {"compound": "COc1cc(SC#N)ccc1N=Cc1c(C)[nH]n(-c2cccc3ccccc23)c1=O", "activity change, negative = inhibition": "inconclusive: 1.6%"}, {"compound": "CCCCN1CC[C@@H]2C=CC[C@H](C(=O)OC)[C@@H]2C1=O", "activity change, negative = inhibition": "inconclusive: 2.59%"}, {"compound": "COc1cccc(NC(=O)CSc2nc3n[nH]c(C)c3c(=N)n2-c2cccc(OC)c2)c1", "Potency": "inconclusive: 8.91 µM [falling, partial curve]"}, {"compound": "COc1cccc(CNC(=O)c2ccc(NS(=O)(=O)c3ccc4[nH]c(=O)[nH]c4c3)cc2)c1", "activity change, negative = inhibition": "inconclusive: 2.56%"}, {"compound": "COc1ccc(NC(=O)CN(C)C(=O)c2cc(S(=O)(=O)N3CCCCCC3)ccc2OC)cc1", "activity change, negative = inhibition": "inactive: 1.12%"}, {"compound": "COc1cccc(N/C(C)=C/C(=O)c2ccc(Br)cc2)c1", "Potency": "inconclusive: 29.1 µM [falling, partial curve, poor fit]"}, {"compound": "COc1cc(/C=C/C(=O)OCC(=O)NCc2ccc(F)cc2)ccc1O", "Potency": "inconclusive: 32.6 µM [falling, partial curve, poor fit]"}, {"compound": "C=CCN1C(=O)C(Cc2ccc(Br)cc2)S/C1=N\\N=C\\c1ccco1", "note": "(configuration not stated)", "activity change, negative = inhibition": "inactive: -10.9%"}, {"compound": "COc1ccc(CC(=O)NC(C)c2nnc(SCC(=O)c3ccc(Br)cc3)n2C)cc1", "note": "(configuration not stated)", "Potency": "inconclusive: 23.1 µM [rising, partial curve]"}, {"compound": "CCCCC/C=N/NC(=O)c1[nH]c2ccc([N+](=O)[O-])cc2c1C", "activity change, negative = inhibition": "inconclusive: -21%"}, {"compound": "C/C(N)=C(/C#N)C(=O)CSc1nc2ccccc2c(=O)n1Cc1ccc(F)cc1", "activity change, negative = inhibition": "inconclusive: 6.01%"}, {"compound": "CCCc1nnc(NC(=O)CCC(=O)Nc2ccc(Cl)cc2)s1", "activity change, negative = inhibition": "inactive: -1.42%"}, {"compound": "O=C(NCCN1CCN(c2ccccc2)CC1)Nc1ccccc1Br", "activity change, negative = inhibition": "inconclusive: 2.72%"}, {"compound": "N#C/C(=C/c1ccc(Br)o1)C(N)=O", "activity change, negative = inhibition": "inconclusive: -1.65%"}, {"compound": "CS(=O)(=O)c1nc(S(=O)(=O)c2ccc(Cl)cc2)c(NCCCN2CCOCC2)s1", "activity change, negative = inhibition": "inactive: -3.87%"}, {"compound": "O=C(Oc1ccccc1/C=C\\C(=O)c1cc2ccccc2o1)c1cccc(F)c1", "Potency": "inconclusive: 8.2 µM [falling, partial curve, poor fit]"}, {"compound": "CNC(=O)CSc1nc2ccccc2c(=O)n1-c1cc(OC)ccc1OC", "activity change, negative = inhibition": "inconclusive: -1.63%"}, {"compound": "CC(C)C[C@H]1CN=C(Nc2ccccc2)N1CCCC1CCCCC1", "Potency": "inconclusive: 20 µM [falling, single point]"}, {"compound": "C/C(=N\\Nc1cc(C)nc(-c2ccccc2O)n1)c1ccccc1", "activity change, negative = inhibition": "inconclusive: 14.7%"}, {"compound": "COc1cccc(OCCCn2ccnc2)c1", "Potency": "inconclusive: 5.62 µM [falling, partial curve, poor fit]"}, {"compound": "CN(Cc1nc(-c2ccc(Cl)cc2)no1)C(=O)c1ccco1", "activity change, negative = inhibition": "inactive: -0.195%"}, {"compound": "COc1ccccc1NC(=S)NC1CCC(CC2CCC(NC(=S)Nc3ccccc3OC)CC2)CC1", "note": "(configuration not stated)", "activity change, negative = inhibition": "inactive: 4.07%"}, {"compound": "O=C(Nc1cccc(F)c1)C1CCN(C(=O)NCc2ccccc2)CC1", "activity change, negative = inhibition": "inactive: 3.6%"}, {"compound": "COc1cc(N/C(N)=N/c2nc(C)cc(C)n2)cc(OC)c1", "activity change, negative = inhibition": "inconclusive: -22.4%"}, {"compound": "CCCCCNC(=O)c1ccc2c(=O)n(CCOC)c(=O)[nH]c2c1", "Potency": "inconclusive: 2.91 µM [rising, partial curve, poor fit]"}]}]}
